Source: PubChem BioAssay (EPA / NIEHS)
This list was built around the results that the source calls inconclusive (neither active nor inactive); the mix of calls is not that of the screen. Potencies of inconclusive entries are doubtful fits and often do not repeat. Activity calls are given as the source filed them. How the source made its calls: active means hit-call score of the fitted dose curve at least 0.9, where 1 is the maximum; inconclusive means response in the unintended direction; inactive means score below 0.9.

Sequences of proteins named here, by UniProt entry; tags and fusion partners are left off. A change or cut given only in a name is not applied to a line headed by its entry.
UniProt P43378: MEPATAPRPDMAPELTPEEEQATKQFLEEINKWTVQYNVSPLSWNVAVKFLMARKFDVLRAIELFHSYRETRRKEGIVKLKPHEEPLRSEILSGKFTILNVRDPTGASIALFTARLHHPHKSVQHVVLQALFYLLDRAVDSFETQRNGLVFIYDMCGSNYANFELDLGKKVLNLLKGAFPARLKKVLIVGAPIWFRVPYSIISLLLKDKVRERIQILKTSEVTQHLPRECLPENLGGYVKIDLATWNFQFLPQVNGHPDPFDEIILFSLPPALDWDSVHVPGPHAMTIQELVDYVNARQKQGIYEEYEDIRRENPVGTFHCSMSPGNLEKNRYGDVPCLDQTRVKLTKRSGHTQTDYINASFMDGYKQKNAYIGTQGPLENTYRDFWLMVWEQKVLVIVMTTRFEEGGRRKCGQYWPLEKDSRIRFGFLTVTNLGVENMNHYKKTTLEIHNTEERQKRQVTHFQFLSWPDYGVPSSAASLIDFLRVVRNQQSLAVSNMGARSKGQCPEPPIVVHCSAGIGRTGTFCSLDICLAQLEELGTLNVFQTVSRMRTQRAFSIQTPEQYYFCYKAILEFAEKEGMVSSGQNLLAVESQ
UniProt P29350: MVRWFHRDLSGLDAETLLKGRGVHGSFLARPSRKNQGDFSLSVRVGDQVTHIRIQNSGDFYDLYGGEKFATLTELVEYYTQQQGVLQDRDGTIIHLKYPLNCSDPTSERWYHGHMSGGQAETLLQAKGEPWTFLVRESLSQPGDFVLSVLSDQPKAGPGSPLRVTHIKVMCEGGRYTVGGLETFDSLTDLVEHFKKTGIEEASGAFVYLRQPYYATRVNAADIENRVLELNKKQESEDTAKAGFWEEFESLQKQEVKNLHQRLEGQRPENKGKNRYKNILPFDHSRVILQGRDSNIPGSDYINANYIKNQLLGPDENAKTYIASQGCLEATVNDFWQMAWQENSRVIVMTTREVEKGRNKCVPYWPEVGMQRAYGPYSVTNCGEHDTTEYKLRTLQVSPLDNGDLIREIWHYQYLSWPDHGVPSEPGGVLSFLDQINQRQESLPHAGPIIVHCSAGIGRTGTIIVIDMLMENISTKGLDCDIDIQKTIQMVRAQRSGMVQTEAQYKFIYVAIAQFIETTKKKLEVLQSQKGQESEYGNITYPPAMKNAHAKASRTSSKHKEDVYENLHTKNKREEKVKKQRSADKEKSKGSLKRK
UniProt P23467: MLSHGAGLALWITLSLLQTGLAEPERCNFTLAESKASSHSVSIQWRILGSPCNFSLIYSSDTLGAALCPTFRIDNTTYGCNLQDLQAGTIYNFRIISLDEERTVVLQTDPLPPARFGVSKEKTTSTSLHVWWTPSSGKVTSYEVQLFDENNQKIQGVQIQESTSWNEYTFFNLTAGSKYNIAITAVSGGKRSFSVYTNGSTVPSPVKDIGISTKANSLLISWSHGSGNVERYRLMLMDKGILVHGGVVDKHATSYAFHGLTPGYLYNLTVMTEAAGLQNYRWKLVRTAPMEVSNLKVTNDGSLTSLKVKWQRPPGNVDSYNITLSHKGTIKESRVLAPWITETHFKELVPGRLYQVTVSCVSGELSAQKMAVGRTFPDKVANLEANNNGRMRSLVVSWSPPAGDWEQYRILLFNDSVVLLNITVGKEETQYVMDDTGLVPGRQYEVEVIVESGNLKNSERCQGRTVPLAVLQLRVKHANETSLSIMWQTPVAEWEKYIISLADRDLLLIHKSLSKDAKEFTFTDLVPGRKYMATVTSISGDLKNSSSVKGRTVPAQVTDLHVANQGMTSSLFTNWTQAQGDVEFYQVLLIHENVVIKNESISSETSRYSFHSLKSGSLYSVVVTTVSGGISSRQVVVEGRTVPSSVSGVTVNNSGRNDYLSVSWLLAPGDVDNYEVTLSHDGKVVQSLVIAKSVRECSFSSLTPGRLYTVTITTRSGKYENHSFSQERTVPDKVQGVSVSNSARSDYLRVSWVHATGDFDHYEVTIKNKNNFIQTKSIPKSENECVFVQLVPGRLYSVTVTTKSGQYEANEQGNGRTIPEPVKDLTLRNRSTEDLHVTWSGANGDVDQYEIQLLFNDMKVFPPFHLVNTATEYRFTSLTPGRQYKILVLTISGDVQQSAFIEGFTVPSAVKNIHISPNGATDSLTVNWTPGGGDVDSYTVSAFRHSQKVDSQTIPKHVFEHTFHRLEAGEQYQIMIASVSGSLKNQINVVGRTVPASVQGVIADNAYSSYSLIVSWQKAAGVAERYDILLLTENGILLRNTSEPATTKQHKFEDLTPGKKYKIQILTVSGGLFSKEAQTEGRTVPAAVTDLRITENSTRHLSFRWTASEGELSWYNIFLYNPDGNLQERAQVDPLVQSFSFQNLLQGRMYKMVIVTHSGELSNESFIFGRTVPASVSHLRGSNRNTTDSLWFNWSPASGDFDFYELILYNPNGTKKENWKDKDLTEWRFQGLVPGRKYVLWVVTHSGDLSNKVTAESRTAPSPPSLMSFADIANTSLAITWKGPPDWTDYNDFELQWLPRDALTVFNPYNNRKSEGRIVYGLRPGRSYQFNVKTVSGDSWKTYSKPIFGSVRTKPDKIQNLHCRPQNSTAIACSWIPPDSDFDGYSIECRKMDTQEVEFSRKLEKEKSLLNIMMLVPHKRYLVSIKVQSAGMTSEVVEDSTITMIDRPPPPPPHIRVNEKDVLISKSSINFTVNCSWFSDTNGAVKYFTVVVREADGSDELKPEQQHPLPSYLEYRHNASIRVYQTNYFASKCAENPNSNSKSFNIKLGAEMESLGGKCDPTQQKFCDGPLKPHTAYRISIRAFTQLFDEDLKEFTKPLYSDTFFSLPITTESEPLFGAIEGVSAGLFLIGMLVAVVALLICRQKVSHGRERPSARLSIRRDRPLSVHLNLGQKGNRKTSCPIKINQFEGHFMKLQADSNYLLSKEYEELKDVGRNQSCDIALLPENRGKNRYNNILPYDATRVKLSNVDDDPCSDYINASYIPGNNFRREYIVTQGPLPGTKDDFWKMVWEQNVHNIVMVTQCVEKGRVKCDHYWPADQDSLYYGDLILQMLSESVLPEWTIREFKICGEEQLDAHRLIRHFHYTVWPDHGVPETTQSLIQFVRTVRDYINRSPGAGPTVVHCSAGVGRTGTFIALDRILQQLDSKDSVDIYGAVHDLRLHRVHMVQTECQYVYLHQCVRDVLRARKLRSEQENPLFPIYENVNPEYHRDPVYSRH
UniProt P28827, whole entry, looked up: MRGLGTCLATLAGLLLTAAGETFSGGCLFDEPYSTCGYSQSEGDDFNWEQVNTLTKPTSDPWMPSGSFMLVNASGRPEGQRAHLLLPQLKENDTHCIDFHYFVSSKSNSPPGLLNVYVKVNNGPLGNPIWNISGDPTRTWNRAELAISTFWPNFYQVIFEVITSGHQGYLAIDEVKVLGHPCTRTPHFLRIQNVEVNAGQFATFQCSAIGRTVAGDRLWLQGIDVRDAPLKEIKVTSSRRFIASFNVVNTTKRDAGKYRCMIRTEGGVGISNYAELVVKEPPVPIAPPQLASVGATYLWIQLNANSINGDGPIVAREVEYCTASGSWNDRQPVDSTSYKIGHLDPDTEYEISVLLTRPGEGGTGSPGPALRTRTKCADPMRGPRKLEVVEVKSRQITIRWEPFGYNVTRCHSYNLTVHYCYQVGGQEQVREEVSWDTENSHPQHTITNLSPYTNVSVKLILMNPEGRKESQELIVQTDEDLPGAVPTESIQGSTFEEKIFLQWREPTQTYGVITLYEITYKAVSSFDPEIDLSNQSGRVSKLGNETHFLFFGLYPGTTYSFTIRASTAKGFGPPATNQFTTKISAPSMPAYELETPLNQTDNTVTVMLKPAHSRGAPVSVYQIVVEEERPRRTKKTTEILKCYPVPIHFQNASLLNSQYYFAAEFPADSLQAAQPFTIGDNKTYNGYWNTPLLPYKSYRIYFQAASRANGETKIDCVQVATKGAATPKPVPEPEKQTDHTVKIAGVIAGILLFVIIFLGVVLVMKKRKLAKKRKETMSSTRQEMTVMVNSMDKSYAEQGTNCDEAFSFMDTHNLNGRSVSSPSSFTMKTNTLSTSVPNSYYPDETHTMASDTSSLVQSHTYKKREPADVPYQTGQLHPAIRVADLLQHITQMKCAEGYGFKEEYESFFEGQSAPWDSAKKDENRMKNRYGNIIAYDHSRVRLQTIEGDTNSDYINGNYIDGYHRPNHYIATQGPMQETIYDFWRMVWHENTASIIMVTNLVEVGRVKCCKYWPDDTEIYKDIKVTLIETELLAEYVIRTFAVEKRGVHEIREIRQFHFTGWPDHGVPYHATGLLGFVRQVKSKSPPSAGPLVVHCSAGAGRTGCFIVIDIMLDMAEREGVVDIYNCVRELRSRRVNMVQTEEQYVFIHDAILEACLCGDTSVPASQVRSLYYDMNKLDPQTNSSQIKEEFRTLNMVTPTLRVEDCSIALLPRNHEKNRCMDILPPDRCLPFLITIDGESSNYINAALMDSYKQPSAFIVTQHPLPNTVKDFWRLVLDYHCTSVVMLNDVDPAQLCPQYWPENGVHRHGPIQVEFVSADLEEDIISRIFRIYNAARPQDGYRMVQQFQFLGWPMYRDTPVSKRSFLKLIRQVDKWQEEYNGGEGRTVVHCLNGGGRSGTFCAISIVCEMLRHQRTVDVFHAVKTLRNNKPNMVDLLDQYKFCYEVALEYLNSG
UniProt Q8IXJ6: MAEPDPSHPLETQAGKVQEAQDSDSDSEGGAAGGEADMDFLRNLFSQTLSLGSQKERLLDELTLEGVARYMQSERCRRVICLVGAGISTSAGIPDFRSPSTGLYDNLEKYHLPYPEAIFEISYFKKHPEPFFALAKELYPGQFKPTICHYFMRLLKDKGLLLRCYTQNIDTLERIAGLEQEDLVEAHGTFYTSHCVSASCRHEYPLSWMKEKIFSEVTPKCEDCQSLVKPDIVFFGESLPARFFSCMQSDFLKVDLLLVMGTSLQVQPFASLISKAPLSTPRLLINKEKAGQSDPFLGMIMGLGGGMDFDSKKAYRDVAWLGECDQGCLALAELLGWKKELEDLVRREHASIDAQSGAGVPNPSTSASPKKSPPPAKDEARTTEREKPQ
UniProt Q9NTG7: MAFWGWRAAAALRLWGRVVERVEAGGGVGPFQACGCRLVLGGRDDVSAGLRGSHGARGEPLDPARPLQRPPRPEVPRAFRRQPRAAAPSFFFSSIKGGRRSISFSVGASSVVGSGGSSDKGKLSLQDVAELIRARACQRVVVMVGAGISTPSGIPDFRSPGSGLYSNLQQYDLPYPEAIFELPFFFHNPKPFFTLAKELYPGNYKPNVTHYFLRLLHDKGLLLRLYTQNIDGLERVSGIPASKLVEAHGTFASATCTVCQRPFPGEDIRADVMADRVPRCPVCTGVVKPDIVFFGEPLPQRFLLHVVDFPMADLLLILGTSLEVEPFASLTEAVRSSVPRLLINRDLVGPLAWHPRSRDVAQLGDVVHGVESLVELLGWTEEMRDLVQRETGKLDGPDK

These compounds were tested against human Protein Tyrosine Phosphatase Non-receptor Type 9 (PTPN9), PTPN9 (gene 5780) (UniProt P43378) (assay: NVS_ENZ_hPTPN9: NovaScreen (NVS) Enzymatic Assay for human Protein Tyrosine Phosphatase Non-receptor Type 9 (PTPN9) (AID 2283209)).
Outline: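 Sf9-expressed enzyme in a cell-free assay, fluorescence read 1.33 h after dosing with mobility-shift separation of substrate and product. Tested at 25 uM in duplicate, then up to 50 uM; signal loss versus DMSO.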

Row | SMILES | AC50 | outcome
1 | Oc1c(Cl)c(Cl)c(Cl)c(Cl)c1Cl | inconclusive: 0.00117 µM | 
2 | CC(C)(C)C(O)C(Oc1ccc(Cl)cc1)n1cncn1 (centres undefined) |  | inactive
3 | O=C(O)C(F)(F)C(F)(F)C(F)(F)C(F)(F)C(F)(F)F |  | inactive
4 | CCCN(CCC)c1c([N+](=O)[O-])cc(S(N)(=O)=O)cc1[N+](=O)[O-] | inconclusive: 26.4 µM | 
5 | Cn1cc(-c2ccccc2)c(=O)c(-c2cccc(C(F)(F)F)c2)c1 | inconclusive: 6.01 µM | 
6 | CC(C)(C)OOC(C)(C)C | inconclusive: 0.0528 µM | 
7 | Cc1cc2c3c(c1)C(c1ccccc1)=N[C@@H](NC(=O)c1ccncc1)C(=O)N3CC2 | inconclusive: 6.12 µM | 
8 | O=C1C2CC=CCC2C(=O)N1SC(Cl)(Cl)Cl (centres undefined) |  | inactive
9 | Oc1ccc2ccc3cccc4ccc1c2c34 | active: 1.44 µM | 
10 | CC(C)(C)c1ccc(CSc2cnn(C(C)(C)C)c(=O)c2Cl)cc1 | active: 17 µM | 
11 | CCCCCOC(=O)c1ccccc1C(=O)OCCCCC |  | inactive

Each compound was assayed against human Protein Tyrosine Phosphatase Non-receptor Type 6 (PTPN6), PTPN6 (gene 5777) (UniProt P29350) (assay: NVS_ENZ_hPTPN6: NovaScreen (NVS) Enzymatic Assay for human Protein Tyrosine Phosphatase Non-receptor Type 6 (PTPN6) (AID 2283210)).
Outline: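 Cell-free assay with recombinant PTPN6 expressed in SF9 cells, fluorescent substrate, product separated from substrate by electrophoretic mobility shift; read 1.33 hours after dosing. Primary screen in duplicate at 25 uM, actives retested in concentration series; DMSO baseline.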

Row | SMILES | outcome | AC50
12 | CNC(=S)S | inactive | 
13 | CCCN(CCC)c1c([N+](=O)[O-])cc(S(N)(=O)=O)cc1[N+](=O)[O-] |  | inconclusive: 12.5 µM
14 | Oc1ccc(Cl)cc1Cc1ccccc1 |  | inconclusive: 7.5 µM
15 | CC(C)(C)OOC(C)(C)C | inactive | 
16 | CCCCOC(=O)c1ccccc1C(=O)OCCCC | inactive | 
17 | N#Cc1cccnc1 |  | inconclusive: 41.7 µM
18 | C[N+](C)(C)CC1CO1 (centres undefined) | inactive | 

These compounds were tested against human Protein Tyrosine Phosphatase Receptor Type B (PTPRB), PTPRB (gene 5787) (UniProt P23467) (assay: NVS_ENZ_hPTPRB: NovaScreen (NVS) Enzymatic Assay for human Protein Tyrosine Phosphatase Receptor Type B (PTPRB) (AID 2283211)).
Outline: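 Recombinant human PTPRB with a fluorescent substrate, product separated by electrophoretic mobility shift; read 1 h after dosing. Primary screen in duplicate at 25 uM; actives then retested in concentration series; loss of signal versus DMSO.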

Row | SMILES | outcome | AC50
19 | COc1nc(NC(C)C)nc(NC(C)C)n1 | inactive | 
20 | O=C(O)C(F)(F)C(F)(F)C(F)(F)C(F)(F)C(F)(F)F | inactive | 
21 | CC1=C2C[C@H]3[C@@H](CC=C4C[C@@H](O)CC[C@@]43C)[C@@H]2CC[C@]12O[C@@H]1C[C@H](C)CN[C@H]1[C@H]2C |  | inconclusive: 12.5 µM
22 | CCCCOC(=O)c1ccccc1C(=O)OCCCC |  | inconclusive: 25 µM
23 | N#Cc1cccnc1 | inactive | 

The compounds below were run against human Protein Tyrosine Phosphatase Receptor Type F (PTPRF), PTPRF (gene 5792) (UniProt P10586) (assay: NVS_ENZ_hPTPRF: NovaScreen (NVS) Enzymatic Assay for human Protein Tyrosine Phosphatase Receptor Type F (PTPRF) (AID 2283213)).
Outline: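 Cell-free fluorescence enzyme assay with recombinant protein and substrate; product separated by electrophoretic mobility shift. Read 1 h after dosing, single 25 uM duplicate screen, then concentration-response up to 50 uM; loss of signal vs DMSO.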

Row | SMILES | AC50 | outcome
24 | CC(C)(C)C(O)C(Oc1ccc(Cl)cc1)n1cncn1 (centres undefined) | inconclusive: 0.369 µM | 
25 | CNC(=S)S | active: 15.5 µM | 
26 | CCCN(CCC)c1c([N+](=O)[O-])cc(S(N)(=O)=O)cc1[N+](=O)[O-] | inconclusive: 26.4 µM | 
27 | CC(C)(C)OOC(C)(C)C | inconclusive: 0.0581 µM | 
28 | CC1=C2C[C@H]3[C@@H](CC=C4C[C@@H](O)CC[C@@]43C)[C@@H]2CC[C@]12O[C@@H]1C[C@H](C)CN[C@H]1[C@H]2C | inconclusive: 12.5 µM | 
29 | O=C1C2CC=CCC2C(=O)N1SC(Cl)(Cl)Cl (centres undefined) | inconclusive: 25 µM | 
30 | N#Cc1cccnc1 | inconclusive: 0.0624 µM | 
31 | Oc1ccc2ccc3cccc4ccc1c2c34 | active: 16.5 µM | 
32 | CCNS(=O)(=O)C(F)(F)C(F)(F)C(F)(F)C(F)(F)C(F)(F)C(F)(F)C(F)(F)C(F)(F)F | inconclusive: 0.272 µM | 
33 | O=[N+]([O-])c1c(Cl)c(Cl)c(Cl)c(Cl)c1Cl |  | inactive

Each compound was assayed against human Protein Tyrosine Phosphatase Receptor Type M (PTPRM), PTPRM (gene 5797) (UniProt P28827) (assay: NVS_ENZ_hPTPRM: NovaScreen (NVS) Enzymatic Assay for human Protein Tyrosine Phosphatase Receptor Type M (PTPRM) (AID 2283215)).
Outline: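 Cell-free recombinant PTPRM with fluorogenic substrate; product separated from substrate by electrophoretic mobility shift and read by fluorescence, 1.33 h after dosing. Primary screen single concentration (25 uM) in duplicate; actives retested in concentration series; loss of signal versus DMSO.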

Row | SMILES | AC50 | outcome
34 | CC(C)(C)C(O)C(Oc1ccc(Cl)cc1)n1cncn1 (centres undefined) | inconclusive: 25 µM | 
35 | CCCN(CCC)c1c([N+](=O)[O-])cc(S(N)(=O)=O)cc1[N+](=O)[O-] | inconclusive: 0.409 µM | 
36 | Oc1ccc(Cl)cc1Cc1ccccc1 | inconclusive: 0.893 µM | 
37 | CC1=C2C[C@H]3[C@@H](CC=C4C[C@@H](O)CC[C@@]43C)[C@@H]2CC[C@]12O[C@@H]1C[C@H](C)CN[C@H]1[C@H]2C | inconclusive: 12.5 µM | 
38 | N#Cc1cccnc1 | inconclusive: 0.0898 µM | 
39 | CCNS(=O)(=O)C(F)(F)C(F)(F)C(F)(F)C(F)(F)C(F)(F)C(F)(F)C(F)(F)C(F)(F)F |  | inactive
40 | C[N+](C)(C)CC1CO1 (centres undefined) | inconclusive: 0.158 µM | 
41 | CC(C)C(=O)OCC(C)(C)C(OC(=O)C(C)C)C(C)C (centres undefined) |  | inactive

These compounds were tested against human Sirtuin 2 (SIRT2), SIRT2 (gene 22933) (UniProt Q8IXJ6) (assay: NVS_ENZ_hSIRT2: NovaScreen (NVS) Enzymatic Assay for human Sirtuin 2 (SIRT2) (AID 2283217)).
Outline: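 Cell-free recombinant human SIRT2, fluorescent substrate with product separated by electrophoretic mobility shift, 1 hr. Screened in duplicate at 25 uM; hits rerun singly in concentration-response up to 50 uM, relative to DMSO.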

Row | SMILES | AC50 | outcome
42 | CCCN(CCC)c1c([N+](=O)[O-])cc(S(N)(=O)=O)cc1[N+](=O)[O-] | inconclusive: 0.00242 µM | 
43 | Cc1cc2c3c(c1)C(c1ccccc1)=N[C@@H](NC(=O)c1ccncc1)C(=O)N3CC2 |  | inactive
44 | CC1=C2C[C@H]3[C@@H](CC=C4C[C@@H](O)CC[C@@]43C)[C@@H]2CC[C@]12O[C@@H]1C[C@H](C)CN[C@H]1[C@H]2C | inconclusive: 12.5 µM | 
45 | N#Cc1cccnc1 |  | inactive
46 | CCNS(=O)(=O)C(F)(F)C(F)(F)C(F)(F)C(F)(F)C(F)(F)C(F)(F)C(F)(F)C(F)(F)F | inconclusive: 0.0804 µM | 
47 | CC(C)C(=O)OCC(C)(C)C(OC(=O)C(C)C)C(C)C (centres undefined) | inconclusive: 6.53 µM | 

These compounds were tested against human Sirtuin 3 (SIRT3), SIRT3 (gene 23410) (UniProt Q9NTG7) (assay: NVS_ENZ_hSIRT3: NovaScreen (NVS) Enzymatic Assay for human Sirtuin 3 (SIRT3) (AID 2283222)).
Outline: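 Cell-free enzyme assay with recombinant protein and fluorescent substrate, product separated by electrophoretic mobility shift; read 1 hour after dosing. Screened in duplicate at 25 uM, then singleton concentration-response up to 50 uM; loss of signal versus DMSO.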

Row | SMILES | AC50 | outcome
48 | CC(C)(C)C(O)C(Oc1ccc(Cl)cc1)n1cncn1 (centres undefined) | inconclusive: 25 µM | 
49 | CCCN(CCC)c1c([N+](=O)[O-])cc(S(N)(=O)=O)cc1[N+](=O)[O-] | inconclusive: 0.195 µM | inactive
50 | Cc1cc2c3c(c1)C(c1ccccc1)=N[C@@H](NC(=O)c1ccncc1)C(=O)N3CC2 |  | inactive
51 | CC1=C2C[C@H]3[C@@H](CC=C4C[C@@H](O)CC[C@@]43C)[C@@H]2CC[C@]12O[C@@H]1C[C@H](C)CN[C@H]1[C@H]2C | inconclusive: 0.415 µM | 
52 | O=C1C2CC=CCC2C(=O)N1SC(Cl)(Cl)Cl (centres undefined) | active: 39.5 µM | 
53 | O=S(=O)(O)C(F)(F)C(F)(F)C(F)(F)C(F)(F)C(F)(F)C(F)(F)F | inconclusive: 25 µM | 
